# Assay results: patent publication US20130012693
# The chains behind the UniProt entries cited, without tags or fusion partners. Residues count along the entry.
# UniProt P01138, 122-241: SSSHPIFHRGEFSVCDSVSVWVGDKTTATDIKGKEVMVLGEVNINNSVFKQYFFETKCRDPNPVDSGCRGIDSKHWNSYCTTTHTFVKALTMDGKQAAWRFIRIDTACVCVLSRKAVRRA
# No signal at the amounts used counts as a negative.
# Molecular target: beta-NGF (Homo sapiens) (UniProt P01138)
# Assay: filter binding
# Details: purified recombinant protein, label: radiolabel, single-stranded DNA
# [1] = BndU at Z' (n) positions [n positions 6,13,14,19,20,21,27,28,30 = modified dU], retained binding, variant of 2426-66
# [2] = BndU at Z' (n) positions [n positions 4,11,12,17,18,19,25,26,28 = modified dU], retained binding, variant of 2426-66
# [3] = BndU at Z' (n) positions [n positions 12,19,20,25,26,27,33,34,36 = modified dU], retained binding, variant of 2426-66
# [4] = BndU at Z' (n) positions [n positions 5,12,13,18,19,20,26,27,29 = modified dU], retained binding, variant of 2426-66
# [5] = BndU at Z' (n) positions [n positions 13,20,21,26,27,28,34,35,37 = modified dU], retained binding, variant of 2426-66
# [6] = BndU at Z' (n) positions [n positions 10,17,18,23,24,25,31,32,34 = modified dU], retained binding, variant of 2426-66
# [7] = BndU at Z' (n) positions [n positions 7,14,15,20,21,22,28,29,31 = modified dU], retained binding, variant of 2426-66
# [8] = BndU at Z' (n) positions [n positions 14,21,22,27,28,29,35,36,38 = modified dU], retained binding, variant of 2426-66
# [9] = BndU at Z' (n) positions [n positions 11,18,19,24,25,26,32,33,35 = modified dU], retained binding, variant of 2426-66
# [10] = BndU at Z' (n) positions [n positions 8,15,16,21,22,23,29,30,32 = modified dU], retained binding, variant of 2426-66
# [11] = BndU at Z' (n) positions [n positions 9,16,17,22,23,24,30,31,33 = modified dU], retained binding, variant of 2426-66
sequence,measurement,setting,value
ACACATGAGGACTTGGGGTTTAGCCGTTGTG [2426-66-47],binding result,[1],binds
ACACATGAGGACTTGGGGTTTAGCCGTTGTGGCACAGAGAAGAAACAAGA [2426-66-26],binding result,[1],binds
ACATGAGGACTTGGGGTTTAGCCGTTGTG [2426-66-49],binding result,[2],binds
ACATGAGGACTTGGGGTTTAGCCGTTGTGGCACAGAGAAGAAACAAGACC [2426-66-39],binding result,[2],binds
ACCGTCTGCCTGCAGCGGGACACATGAGGACTTGGGGTTTAGCCGTTGTG [2426-66-7],binding result,"BndU at Z' (n) positions [n positions 25,32,33,38,39,40,46,47,49 = modified dU], retained binding, variant of 2426-66",binds
ACTTGGGGTTTAGCCGTTGTG [2426-66-59],binding result,"BndU at Z' (n) positions [n positions 3,4,9,10,11,17,18,20 = modified dU], did not retain binding, variant of 2426-66",no binding
AGCGGGACACATGAGGACTTGGGGTTTAGCCGTTGTG [2426-66-42],binding result,[3],binds
AGCGGGACACATGAGGACTTGGGGTTTAGCCGTTGTGGCACAGAGAAGAA [2426-66-20],binding result,[3],binds
AGGACTTGGGGTTTAGCCGTTGTG [2426-66-56],binding result,"BndU at Z' (n) positions [n positions 6,7,12,13,14,20,21,23 = modified dU], did not retain binding, variant of 2426-66",no binding
ATGAGGACTTGGGGTTTAGCCGTTGTG [2426-66-76],binding result,"BndU at Z' (n) positions, dT at 10 and 17 [n positions 2,9,15,16,23,24,26 = modified dU], no loss of affinity vs unsubstituted control, variant of 2426-66-53",binds
CACATGAGGACTTGGGGTTTAGCCGTTGTG [2426-66-48],binding result,[4],binds
CACATGAGGACTTGGGGTTTAGCCGTTGTGGCACAGAGAAGAAACAAGAC [2426-66-38],binding result,[4],binds
CAGCGGGACACATGAGGACTTGGGGTTTAGCCGTTGTG [2426-66-41],binding result,[5],binds
CAGCGGGACACATGAGGACTTGGGGTTTAGCCGTTGTGGCACAGAGAAGA [2426-66-19],binding result,[5],binds
CCGTCTGCCTGCAGCGGGACACATGAGGACTTGGGGTTTAGCCGTTGTGG [2426-66-8],binding result,"BndU at Z' (n) positions [n positions 24,31,32,37,38,39,45,46,48 = modified dU], retained binding, variant of 2426-66",binds
CCTGCAGCGGGACACATGAGGACTTGGGGTTTAGCCGTTGTGGCACAGAG [2426-66-15],binding result,"BndU at Z' (n) positions [n positions 17,24,25,30,31,32,38,39,41 = modified dU], retained binding, variant of 2426-66",binds
CGGGACACATGAGGACTTGGGGTTTAGCCGTTGTG [2426-66-43],binding result,[6],binds
CGGGACACATGAGGACTTGGGGTTTAGCCGTTGTGGCACAGAGAAGAAAC [2426-66-22],binding result,[6],binds
CTGCAGCGGGACACATGAGGACTTGGGGTTTAGCCGTTGTGGCACAGAGA [2426-66-16],binding result,"BndU at Z' (n) positions [n positions 16,23,24,29,30,31,37,38,40 = modified dU], retained binding, variant of 2426-66",binds
CTGCCTGCAGCGGGACACATGAGGACTTGGGGTTTAGCCGTTGTGGCACA [2426-66-12],binding result,"BndU at Z' (n) positions [n positions 20,27,28,33,34,35,41,42,44 = modified dU], retained binding, variant of 2426-66",binds
GACACATGAGGACTTGGGGTTTAGCCGTTGTG [2426-66-46],binding result,[7],binds
GACACATGAGGACTTGGGGTTTAGCCGTTGTGGCACAGAGAAGAAACAAG [2426-66-25],binding result,[7],binds
GACCGTCTGCCTGCAGCGGGACACATGAGGACTTGGGGTTTAGCCGTTGT [2426-66-6],binding result,"BndU at Z' (n) positions [n positions 26,33,34,39,40,41,47,48 = modified dU], did not retain binding, variant of 2426-66",no binding
GACTTGGGGTTTAGCCGTTGTG [2426-66-58],binding result,"BndU at Z' (n) positions [n positions 4,5,10,11,12,18,19,21 = modified dU], did not retain binding, variant of 2426-66",no binding
GAGTGACCGTCTGCCTGCAGCGGGACACATGAGGACTTGGGGTTTAGCCG [2426-66-2],binding result,"BndU at Z' (n) positions [n positions 30,37,38,43,44,45 = modified dU], did not retain binding, variant of 2426-66",no binding
GCAGCGGGACACATGAGGACTTGGGGTTTAGCCGTTGTG [2426-66-40],binding result,[8],binds
GCAGCGGGACACATGAGGACTTGGGGTTTAGCCGTTGTGGCACAGAGAAG [2426-66-18],binding result,[8],binds
GCCTGCAGCGGGACACATGAGGACTTGGGGTTTAGCCGTTGTGGCACAGA [2426-66-14],binding result,"BndU at Z' (n) positions [n positions 18,25,26,31,32,33,39,40,42 = modified dU], retained binding, variant of 2426-66",binds
GCGGGACACATGAGGACTTGGGGTTTAGCCGTTGTG [2426-66-52],binding result,[9],binds
GCGGGACACATGAGGACTTGGGGTTTAGCCGTTGTGGCACAGAGAAGAAA [2426-66-21],binding result,[9],binds
GGACACATGAGGACTTGGGGTTTAGCCGTTGTG [2426-66-45],binding result,[10],binds
GGACACATGAGGACTTGGGGTTTAGCCGTTGTGGCACAGAGAAGAAACAA [2426-66-24],binding result,[10],binds
GGACTTGGGGTTTAGCCGTTGTG [2426-66-57],binding result,"BndU at Z' (n) positions [n positions 5,6,11,12,13,19,20,22 = modified dU], did not retain binding, variant of 2426-66",no binding
GGGACACATGAGGACTTGGGGTTTAGCCGTTGTG [2426-66-44],binding result,[11],binds
GGGACACATGAGGACTTGGGGTTTAGCCGTTGTGGCACAGAGAAGAAACA [2426-66-23],binding result,[11],binds
GTCTGCCTGCAGCGGGACACATGAGGACTTGGGGTTTAGCCGTTGTGGCA [2426-66-10],binding result,"BndU at Z' (n) positions [n positions 22,29,30,35,36,37,43,44,46 = modified dU], retained binding, variant of 2426-66",binds
GTGACCGTCTGCCTGCAGCGGGACACATGAGGACTTGGGGTTTAGCCGTT [2426-66-4],binding result,"BndU at Z' (n) positions [n positions 28,35,36,41,42,43,49,50 = modified dU], did not retain binding, variant of 2426-66",no binding
TCTGCCTGCAGCGGGACACATGAGGACTTGGGGTTTAGCCGTTGTGGCAC [2426-66-11],binding result,"BndU at Z' (n) positions [n positions 21,28,29,34,35,36,42,43,45 = modified dU], retained binding, variant of 2426-66",binds
TGACCGTCTGCCTGCAGCGGGACACATGAGGACTTGGGGTTTAGCCGTTG [2426-66-5],binding result,"BndU at Z' (n) positions [n positions 27,34,35,40,41,42,48,49 = modified dU], did not retain binding, variant of 2426-66",no binding
TGAGGACTTGGGGTTTAGCCGTTGTG [2426-66-68],binding result,"BndU at Z' (n) positions, dT at 9 [n positions 1,8,14,15,16,22,23,25 = modified dU], no loss of affinity vs 2426-66-54, variant of 2426-66-54",binds
TGAGGACTTGGGGTTTAGCCGTTGTG [2426-66-70],binding result,"BndU at Z' (n) positions, dT at 15 [n positions 1,8,9,14,16,22,23,25 = modified dU], complete loss of affinity, variant of 2426-66-54",no binding
TGAGGACTTGGGGTTTAGCCGTTGTG [2426-66-71],binding result,"BndU at Z' (n) positions, dT at 16 [n positions 1,8,9,14,15,22,23,25 = modified dU], no loss of affinity vs 2426-66-54, variant of 2426-66-54",binds
TGAGGACTTGGGGTTTAGCCGTTGTG [2426-66-72],binding result,"BndU at Z' (n) positions, dT at 22 [n positions 1,8,9,14,15,16,23,25 = modified dU], complete loss of affinity, variant of 2426-66-54",no binding
TGAGGACTTGGGGTTTAGCCGTTGTG [2426-66-73],binding result,"BndU at Z' (n) positions, dT at 23 [n positions 1,8,9,14,15,16,22,25 = modified dU], complete loss of affinity, variant of 2426-66-54",no binding
